Measurements taken from publication PMC6028381.
Results are given in words; binding and its absence hold for the method and conditions named. Binding seen in cells or lysates may run through a third protein. Here binding means that the protein was enriched with, or labelled near, the bait; the list need not be complete.

By UniProt entry, the sequences of proteins in these tests, tags left out. Where a name states a change or a piece, a line headed by the entry shows the natural chain unless it says otherwise.
UniProt Q13315: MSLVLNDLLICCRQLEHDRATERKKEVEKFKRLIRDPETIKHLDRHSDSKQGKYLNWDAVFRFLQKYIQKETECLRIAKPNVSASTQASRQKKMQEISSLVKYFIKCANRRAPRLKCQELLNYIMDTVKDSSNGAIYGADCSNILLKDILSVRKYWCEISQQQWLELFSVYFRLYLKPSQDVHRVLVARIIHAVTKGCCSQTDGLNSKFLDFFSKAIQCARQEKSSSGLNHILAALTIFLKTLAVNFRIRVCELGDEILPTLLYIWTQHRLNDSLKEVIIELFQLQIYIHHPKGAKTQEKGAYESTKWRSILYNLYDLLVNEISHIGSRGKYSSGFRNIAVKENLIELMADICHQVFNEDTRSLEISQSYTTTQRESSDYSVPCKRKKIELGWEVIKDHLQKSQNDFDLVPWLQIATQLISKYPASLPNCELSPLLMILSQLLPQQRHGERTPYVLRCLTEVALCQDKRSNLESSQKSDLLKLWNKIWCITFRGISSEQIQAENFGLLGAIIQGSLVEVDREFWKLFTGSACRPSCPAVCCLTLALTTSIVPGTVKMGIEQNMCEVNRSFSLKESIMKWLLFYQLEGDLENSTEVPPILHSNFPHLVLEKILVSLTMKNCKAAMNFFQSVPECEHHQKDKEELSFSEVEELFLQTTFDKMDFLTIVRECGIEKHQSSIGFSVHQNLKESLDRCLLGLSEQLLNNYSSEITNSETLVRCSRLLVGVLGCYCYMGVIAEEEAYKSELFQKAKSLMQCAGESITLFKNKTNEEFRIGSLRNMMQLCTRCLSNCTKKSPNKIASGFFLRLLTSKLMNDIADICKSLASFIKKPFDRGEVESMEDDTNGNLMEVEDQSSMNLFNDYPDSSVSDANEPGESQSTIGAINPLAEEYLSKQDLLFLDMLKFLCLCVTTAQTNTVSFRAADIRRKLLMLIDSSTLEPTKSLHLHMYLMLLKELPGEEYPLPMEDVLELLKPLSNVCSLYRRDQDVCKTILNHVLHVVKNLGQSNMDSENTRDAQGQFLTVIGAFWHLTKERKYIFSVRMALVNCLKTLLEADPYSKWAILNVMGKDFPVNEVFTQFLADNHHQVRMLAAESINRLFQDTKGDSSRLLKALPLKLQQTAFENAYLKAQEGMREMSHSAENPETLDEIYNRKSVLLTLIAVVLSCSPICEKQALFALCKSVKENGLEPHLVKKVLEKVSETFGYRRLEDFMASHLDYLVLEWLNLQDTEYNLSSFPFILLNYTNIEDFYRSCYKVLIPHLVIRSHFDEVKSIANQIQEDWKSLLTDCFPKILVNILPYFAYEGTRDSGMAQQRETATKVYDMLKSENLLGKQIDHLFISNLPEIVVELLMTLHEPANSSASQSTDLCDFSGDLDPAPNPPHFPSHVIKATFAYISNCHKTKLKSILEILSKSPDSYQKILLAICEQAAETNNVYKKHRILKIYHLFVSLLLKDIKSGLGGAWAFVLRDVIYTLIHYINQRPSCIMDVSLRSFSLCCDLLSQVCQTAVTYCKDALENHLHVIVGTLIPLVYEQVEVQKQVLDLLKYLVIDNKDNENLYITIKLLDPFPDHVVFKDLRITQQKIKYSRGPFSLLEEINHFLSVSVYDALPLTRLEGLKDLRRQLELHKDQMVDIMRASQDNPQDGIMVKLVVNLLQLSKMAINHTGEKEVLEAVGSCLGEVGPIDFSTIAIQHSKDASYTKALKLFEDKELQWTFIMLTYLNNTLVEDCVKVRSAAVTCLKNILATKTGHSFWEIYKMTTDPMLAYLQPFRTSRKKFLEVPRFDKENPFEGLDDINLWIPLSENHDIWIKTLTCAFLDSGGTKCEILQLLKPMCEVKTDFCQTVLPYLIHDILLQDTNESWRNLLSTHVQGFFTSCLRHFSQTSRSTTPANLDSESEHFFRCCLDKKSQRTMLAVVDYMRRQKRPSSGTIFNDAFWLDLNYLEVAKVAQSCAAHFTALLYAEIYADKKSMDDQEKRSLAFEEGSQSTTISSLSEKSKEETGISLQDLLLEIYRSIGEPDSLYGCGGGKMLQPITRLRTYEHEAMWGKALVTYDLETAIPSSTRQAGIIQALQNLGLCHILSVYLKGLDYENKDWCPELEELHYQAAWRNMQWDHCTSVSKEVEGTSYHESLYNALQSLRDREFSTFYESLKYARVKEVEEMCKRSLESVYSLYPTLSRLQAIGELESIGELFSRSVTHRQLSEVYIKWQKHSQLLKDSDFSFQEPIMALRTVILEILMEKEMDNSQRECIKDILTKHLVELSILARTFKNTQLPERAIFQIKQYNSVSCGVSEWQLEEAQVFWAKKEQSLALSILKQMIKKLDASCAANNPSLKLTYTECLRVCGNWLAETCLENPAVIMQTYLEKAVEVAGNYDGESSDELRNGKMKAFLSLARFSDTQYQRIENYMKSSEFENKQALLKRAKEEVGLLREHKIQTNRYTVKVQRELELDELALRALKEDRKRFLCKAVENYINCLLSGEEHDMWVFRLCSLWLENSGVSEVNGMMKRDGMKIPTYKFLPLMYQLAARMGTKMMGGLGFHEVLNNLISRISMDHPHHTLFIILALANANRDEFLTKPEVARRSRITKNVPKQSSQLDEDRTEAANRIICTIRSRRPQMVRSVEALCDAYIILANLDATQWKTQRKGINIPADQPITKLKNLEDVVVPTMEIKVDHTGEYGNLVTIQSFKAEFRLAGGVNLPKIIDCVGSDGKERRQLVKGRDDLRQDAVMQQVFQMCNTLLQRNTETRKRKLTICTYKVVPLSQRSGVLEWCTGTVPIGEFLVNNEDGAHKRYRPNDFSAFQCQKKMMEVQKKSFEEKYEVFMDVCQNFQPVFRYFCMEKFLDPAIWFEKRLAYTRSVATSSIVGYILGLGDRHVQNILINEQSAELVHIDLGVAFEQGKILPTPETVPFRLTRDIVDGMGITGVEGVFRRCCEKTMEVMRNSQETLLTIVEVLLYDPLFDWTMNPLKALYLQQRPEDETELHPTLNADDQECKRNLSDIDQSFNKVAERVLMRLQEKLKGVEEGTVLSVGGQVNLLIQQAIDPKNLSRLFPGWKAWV
UniProt P16403: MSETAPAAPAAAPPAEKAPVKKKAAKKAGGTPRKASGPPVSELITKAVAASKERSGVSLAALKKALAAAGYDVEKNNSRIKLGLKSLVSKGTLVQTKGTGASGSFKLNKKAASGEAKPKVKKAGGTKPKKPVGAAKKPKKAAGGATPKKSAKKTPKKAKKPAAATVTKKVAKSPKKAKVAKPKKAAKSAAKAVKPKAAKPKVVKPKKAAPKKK

Target: ATM (ataxia telangiectasia mutated), endogenous in HeLa cells (human (endogenous in HeLa)) (UniProt Q13315)
Assay: affinity purification with mass spectrometry; total HeLa cell lysates immunoprecipitated with anti-ATM or anti-IgG antibodies; SDS-PAGE, silver staining, mass spectrometry

linker histone H1.2, endogenous in HeLa cells (from UniProt P16403 1-213)
binding: binds
